Measured values from PMC4915028.
Results are given in words; binding and its absence hold for the method and conditions named. Binding seen in cells or lysates may run through a third protein. Some binding calls cover weakened binding; strength is not graded here. For some of these results: Sequences can lack the tags named with a protein. One block for each molecule: values may come before it.

Sequences of proteins named here, by UniProt entry; tags and fusion partners are left off.
UniProt P53355: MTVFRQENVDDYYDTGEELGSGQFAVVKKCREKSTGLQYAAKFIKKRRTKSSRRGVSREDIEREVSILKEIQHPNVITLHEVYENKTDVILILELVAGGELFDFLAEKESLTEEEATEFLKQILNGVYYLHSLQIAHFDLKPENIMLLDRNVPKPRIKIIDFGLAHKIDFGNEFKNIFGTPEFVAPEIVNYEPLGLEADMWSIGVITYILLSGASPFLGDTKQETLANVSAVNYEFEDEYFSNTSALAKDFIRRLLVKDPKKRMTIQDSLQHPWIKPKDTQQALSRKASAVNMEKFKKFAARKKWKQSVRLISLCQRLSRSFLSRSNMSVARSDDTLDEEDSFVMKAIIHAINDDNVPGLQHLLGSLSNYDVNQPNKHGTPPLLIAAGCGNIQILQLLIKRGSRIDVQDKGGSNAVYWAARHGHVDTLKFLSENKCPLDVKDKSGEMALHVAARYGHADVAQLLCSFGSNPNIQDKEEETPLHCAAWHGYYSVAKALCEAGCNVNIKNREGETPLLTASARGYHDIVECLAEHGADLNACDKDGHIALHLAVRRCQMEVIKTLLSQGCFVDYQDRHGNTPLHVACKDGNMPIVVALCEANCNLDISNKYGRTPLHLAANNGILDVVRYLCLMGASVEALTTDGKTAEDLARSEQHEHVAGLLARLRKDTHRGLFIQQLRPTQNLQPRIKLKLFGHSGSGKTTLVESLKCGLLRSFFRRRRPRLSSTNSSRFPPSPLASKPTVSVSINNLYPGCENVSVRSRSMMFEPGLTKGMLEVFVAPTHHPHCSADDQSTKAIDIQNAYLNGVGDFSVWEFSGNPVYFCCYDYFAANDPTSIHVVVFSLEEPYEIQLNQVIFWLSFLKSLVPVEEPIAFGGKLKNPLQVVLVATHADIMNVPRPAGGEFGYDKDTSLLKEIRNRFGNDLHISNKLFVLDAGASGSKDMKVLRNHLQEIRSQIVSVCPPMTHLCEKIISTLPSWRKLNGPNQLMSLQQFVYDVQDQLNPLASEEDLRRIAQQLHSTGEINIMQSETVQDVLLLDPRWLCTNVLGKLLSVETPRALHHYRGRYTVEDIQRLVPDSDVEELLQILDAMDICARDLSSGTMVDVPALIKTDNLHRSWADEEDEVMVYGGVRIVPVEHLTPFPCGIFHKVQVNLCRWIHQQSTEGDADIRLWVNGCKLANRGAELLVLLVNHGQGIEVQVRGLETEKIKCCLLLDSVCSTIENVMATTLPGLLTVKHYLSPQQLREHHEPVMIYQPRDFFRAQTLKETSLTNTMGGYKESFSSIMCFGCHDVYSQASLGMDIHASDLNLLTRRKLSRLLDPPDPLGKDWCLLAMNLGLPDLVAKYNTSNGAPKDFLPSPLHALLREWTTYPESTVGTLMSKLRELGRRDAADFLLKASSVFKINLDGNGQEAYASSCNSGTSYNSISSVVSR
UniProt Q16665: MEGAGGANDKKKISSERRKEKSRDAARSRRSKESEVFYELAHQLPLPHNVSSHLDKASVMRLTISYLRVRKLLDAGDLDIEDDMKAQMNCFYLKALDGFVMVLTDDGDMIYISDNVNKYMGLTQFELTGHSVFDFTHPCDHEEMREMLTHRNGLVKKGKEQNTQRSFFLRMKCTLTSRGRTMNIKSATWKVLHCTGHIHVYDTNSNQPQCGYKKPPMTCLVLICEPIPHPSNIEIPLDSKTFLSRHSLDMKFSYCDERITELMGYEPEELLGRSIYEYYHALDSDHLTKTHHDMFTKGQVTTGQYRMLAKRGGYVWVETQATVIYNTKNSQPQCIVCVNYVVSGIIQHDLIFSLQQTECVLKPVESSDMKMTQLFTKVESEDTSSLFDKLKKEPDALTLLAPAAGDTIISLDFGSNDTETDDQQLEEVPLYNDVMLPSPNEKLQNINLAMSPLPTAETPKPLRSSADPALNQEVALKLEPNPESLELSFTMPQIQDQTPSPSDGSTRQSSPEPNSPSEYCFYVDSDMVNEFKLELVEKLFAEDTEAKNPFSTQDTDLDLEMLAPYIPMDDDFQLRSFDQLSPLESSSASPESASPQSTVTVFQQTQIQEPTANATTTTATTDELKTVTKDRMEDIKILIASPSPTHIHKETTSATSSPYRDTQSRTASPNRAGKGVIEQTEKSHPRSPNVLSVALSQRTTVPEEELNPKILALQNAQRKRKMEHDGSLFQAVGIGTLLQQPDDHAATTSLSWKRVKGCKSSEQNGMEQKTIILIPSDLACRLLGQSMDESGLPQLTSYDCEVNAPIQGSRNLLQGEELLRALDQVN

What was measured:
[1] = molecular target: DAPK-Myc, in Jurkat cells (UniProt P53355); assay: co-IP; Jurkat cells transfected with FLAG-PHD2 and DAPK-Myc; whole-cell lysates immunoprecipitated with anti-Myc; blots with anti-FLAG and anti-Myc
[2] = molecular target: DAPK-FLAG (death-associated protein kinase, FLAG-tagged) (UniProt P53355); assay: co-IP; HEK293T transfected with DAPK-FLAG or HIF-1α; whole-cell lysates immunoprecipitated with anti-FLAG or anti-HIF-1α; western blot
[3] = molecular target: DAPK in Jurkat cells (human (endogenous in Jurkat)) (UniProt P53355); assay: co-IP; normoxic and hypoxic (1% O2 for 4 h) Jurkat cells; DAPK precipitated by anti-DAPK; associated HIF-1α by western blot
[4] = molecular target: DAPK-Myc, in HEK293T cells (UniProt P53355); assay: co-IP; HEK293T transfected with DAPK-Myc and the N-terminal (aa 1–180) or C-terminal (aa 181–426) domain of FLAG-PHD2; lysates immunoprecipitated with anti-Myc; western blot

Molecule: FLAG-PHD2 (prolyl hydroxylase domain protein 2), in Jurkat cells (from UniProt Q9GZT9 1-426) (enzyme)
binding [1]: binds

Molecule: HIF-1α (hypoxia-inducible factor 1α), transfected (from UniProt Q16665 1-826)
binding [2]: binds

Next, values leading:

binding [3]: binds
Molecule: endogenous HIF-1α in Jurkat cells (from UniProt Q16665 1-826)

binding [4]: binds
B1: N-terminal (aa 1–180) domain of FLAG-PHD2 (domain or fragment, UniProt Q9GZT9 1-180)
chain: MANDSGGPGGPSPSERDRQYCELCGKMENLLRCSRCRSSFYCCKEHQRQDWKKHKLVCQGSEGALGHGVGPHQHSGPAPPAAVPPPRAGAREPRKAAARRDNASGDAAKGKVKAKPPADPAAAASPCRAAAGGQGSAVAAEAEPGKEEPPARSSLFQEKANLYPPSNTPGDALSPGGGLR
